Among the data in PubChem BioAssay AID236 (DTP/NCI, 2004) are T/C and survivor count values, retold here.

The list does not hold the whole screen: it is rich in T/C values a quarter to a half above the control, in often repeated tests (any T/C) and in doses without a T/C. Other doses and runs of a compound stand elsewhere. T/C gives the treated animals as a percentage of the vehicle group. Some doses have a count of surviving animals in place of a T/C: the source holds a T/C of zero for them, seemingly a mark for toxic or unscored doses. Some doses without a T/C left all or most animals alive at the check, yet need not have been tolerated: the source hardly ever lists a survival T/C far under the control, and the zero likely stands for such cases as well. Counts of survivors are from the toxicity check (mostly the fifth day) where no day follows; animals may have died later. Schedule codes are those of the source, read here as Q, the interval in days (D) or hours (H), X, the number of doses. Some doses were run more than once; the values are given in rising order. Some schedule codes hold Z or #, which are not explained here. For survival time, this PubChem deposit counts one and a half times the control or more as active, and values a quarter to a half above the control carry no call in these data; other NCI protocols may use other cut-offs. Some T/C values are followed by the survivors on the day toxicity was checked, most often the fifth; where none is given, no animal had died by that day.

This assay has as its system AK4 lymphoid leukemia ip, C3AKF1 mice, survival. Kind of assay: NCI In Vivo Anticancer Drug Screen. Data for tumor model AK4 Lymphoid Leukemia (intraperitoneal) in C3AKF1 (CHKRF1) mice. The note with it: T/C endpoint: median survival time, higher T/C = longer survival. As for the experimental part: The antitumor activity of compounds was measured in mice bearing transplantable tumors. Survival or tumor size were measured and the results are expressed as the measurement made in the treated group (T) divided by the measurement made in the vehicle treated control group (C). The tumor model used in this assay is AK4 Lymphoid Leukemia (intraperitoneal) in C3AKF1 (CHKRF1) mice

The mark [1] stands for this setting: dose: 0.5 mg/kg/injection, schedule: Q01DX010 (ip), vehicle: saline.
Setting [2] is: dose: 4.0 mg/kg/injection, schedule: Q01DX010 (ip), vehicle: saline.
[3] abbreviates: dose: 25.0 mg/kg/injection, schedule: Q01DX010 (ip), vehicle: saline.
[4] abbreviates: dose: 50.0 mg/kg/injection, schedule: Q01DX010 (ip), vehicle: saline.
The mark [5] stands for this setting: dose: 100.0 mg/kg/injection, schedule: Q01DX010 (ip), vehicle: saline.
The mark [6] stands for this setting: dose: 500.0 mg/kg/injection, schedule: Q01DX010 (ip), vehicle: saline.
Setting [7] is: dose: 40.0 mg/kg/injection, schedule: Q01DX010 (ip), vehicle: saline.
Where [8] appears, read: dose: 10.0 mg/kg/injection, schedule: Q01DX010 (ip), vehicle: saline.
[9] abbreviates: dose: 0.4 mg/kg/injection, schedule: Q01DX010 (ip), vehicle: other.

`NC(=O)N(CCCl)N=O`: the T/C is, setting by setting: under setting [1], 135 % of control; under setting [2], 125 % of control.

For `CN(C)[C@@H]1C(=O)C(C(N)=O)=C(O)[C@@]2(O)C(=O)C3=C(O)c4c(O)cccc4C[C@H]3C[C@@H]12`, the survivor count (dose: 120.0 mg/kg/injection, schedule: Q01DX010 (ip), vehicle: saline) is 0 of 6.

With `CS(=O)(=O)OCCC(=O)N1CCN(C(=O)CCOS(C)(=O)=O)CC1`, the T/C under setting [3] was 133 % of control; the T/C under setting [4] was 133 and 144 % of control; the T/C under setting [5] is 144 % of control.

With `CCN(CCNc1ccc(C)c2sc3cc(Cl)ccc3c(=O)c12)CC(C)O` (stereo not given), the survivor count is, setting by setting: (dose: 250.0 mg/kg/injection, schedule: Q01DX010 (ip), vehicle: saline) 5 of 6; under setting [6], 0 of 6.

As to `[I][Hg][CH2]C1COC([CH2][Hg][I])CO1` (stereo not given), the survivor count was 6 of 6 (dose: 6.25 mg/kg/injection, schedule: Q01DX010 (ip), vehicle: saline); 6 of 6 (dose: 12.5 mg/kg/injection, schedule: Q01DX010 (ip), vehicle: saline); 6 of 6 under setting [3]; 4 of 6 and 6 of 6 under setting [4].

For `O=P1(N(CCCl)CCCl)NCCCO1` (stereo not given), the T/C (dose: 11.3 mg/kg/injection, schedule: Q01DX010 (ip), vehicle: saline) is 130 % of control.

As to `NC(Cc1c[nH]c2ccc(N(CCCl)CCCl)cc12)C(=O)O` (stereo not given), the T/C is 143 % of control under setting [1] and 137 % of control (dose: 1.0 mg/kg/injection, schedule: Q01DX010 (ip), vehicle: saline).

`O=NN(CCCl)C(=O)NCCCl`: where the note is “dose: 3.13 mg/kg/injection, schedule: Q01DX010 (ip), vehicle: saline”, the T/C was 127 and 140 % of control. The survivor count under setting [3] is reported as 6 of 6.

For the compound `C[C@@H]1C[C@@H]([C@H](O)CC2CC(=O)NC(=O)C2)C(=O)[C@@H](C)C1`, under setting [7], the T/C is 128 % of control and the survivor count was 5 of 6.

With `CC1CCOS(=O)O1` (stereo not given), the survivor count is, setting by setting: under setting [8], 6 of 6; (dose: 80.0 mg/kg/injection, schedule: Q01DX010 (ip), vehicle: saline) 6 of 6.

For `Nc1nc(N)c2nc(CNc3ccc(C(=O)NC(CCC(=O)O)C(=O)O)cc3)cnc2n1` (stereo not given), the T/C (dose: 0.05 mg/kg/injection, schedule: Q01DX010 (ip), vehicle: other) was 130 % of control. Besides, under setting [9], the T/C was 130 % of control and the survivor count is recorded as 0 of 6.

As to `CN(N=O)C(N)=O`, the T/C (dose: 5.0 mg/kg/injection, schedule: Q01DX010 (ip), vehicle: saline) was 143 % of control.

For the compound `NC(Cc1ccc(N(CCCl)CCCl)cc1)C(=O)O` (stereo not given), the T/C under setting [2] is 143 % of control.

On to `O=c1[nH]cc(F)c(=O)[nH]1`, for which, under setting [8], the T/C is 131 % of control.

On to `CCOC(N)=O`, for which the T/C runs as follows: under setting [6], 131 and 142 % of control; (dose: 1000.0 mg/kg/injection, schedule: Q01DX010 (ip), vehicle: saline) 128 % of control [5 of 6 alive].

On to `CC[C@]1(O)C[C@H]2CN(CCc3c([nH]c4ccccc34)[C@@](C(=O)OC)(c3cc4c(cc3OC)N(C=O)[C@H]3[C@@](O)(C(=O)OC)[C@H](OC(C)=O)[C@]5(CC)C=CCN6CC[C@]43[C@@H]65)C2)C1`, for which the T/C by setting is: (dose: 0.25 mg/kg/injection, schedule: Q01DX010 (ip), vehicle: saline) 125 % of control; (dose: 125.0 micrograms/kg/injection, schedule: Q01DX010 (ip), vehicle: saline) 137 % of control; (dose: 250.0 micrograms/kg/injection, schedule: Q01DX010 (ip), vehicle: saline) 131 % of control; (dose: 500.0 micrograms/kg/injection, schedule: Q01DX010 (ip), vehicle: saline) 143 % of control. Moreover, the survivor count is 6 of 6 under setting [1]; 2 of 6 and 6 of 6 (dose: 0.5 mg/kg/injection, schedule: Q01DX Z (ip), vehicle: saline).

As for `Nc1nc(F)nc2c1ncn2C1OC(CO)C(O)C1O` (stereo not given), the survivor count (dose: 8.0 mg/kg/injection, schedule: Q01DX010 (ip), vehicle: saline) is listed as 6 of 6 and the survivor count (dose: 16.0 mg/kg/injection, schedule: Q01DX010 (ip), vehicle: saline) was 0 of 6.

Regarding `COc1cc(-c2ccc(Nc3ccccc3C(=O)O)c(OC)c2)ccc1Nc1ccccc1C(=O)O`, the T/C by setting is: under setting [4], 125 [6 of 7 alive] and 133 % of control; under setting [5], 127 % of control [5 of 6 alive]. In addition, the survivor count (dose: 200.0 mg/kg/injection, schedule: Q01DX010 (ip), vehicle: saline) is 0 of 6.
